These are yes or no findings as the source states them, for the method shown. In cells and extracts the contact can be indirect. Some entries that bind do so weakly or less than the wild type. Where a sequence is shown, tags or fusion partners need not be part of it.
Biological target: T1, human TRIM31 (tripartite motif), Myc-tagged (human) (UniProt Q9BZY9)
T1 sequence: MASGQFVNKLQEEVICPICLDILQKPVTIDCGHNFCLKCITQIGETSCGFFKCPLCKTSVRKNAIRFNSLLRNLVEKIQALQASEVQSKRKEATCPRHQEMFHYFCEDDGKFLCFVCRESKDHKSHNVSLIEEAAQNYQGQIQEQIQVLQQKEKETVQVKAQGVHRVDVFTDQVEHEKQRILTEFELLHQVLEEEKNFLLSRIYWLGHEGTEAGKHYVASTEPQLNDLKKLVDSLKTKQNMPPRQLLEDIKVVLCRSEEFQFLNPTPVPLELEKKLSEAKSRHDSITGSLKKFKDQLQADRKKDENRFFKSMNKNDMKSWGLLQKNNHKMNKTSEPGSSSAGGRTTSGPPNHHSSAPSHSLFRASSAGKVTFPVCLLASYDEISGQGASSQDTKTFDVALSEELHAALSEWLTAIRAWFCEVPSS
Test: co-IP; HEK293T cells expressing TRIM31-Myc or HA-NDP52 lysed with 0.5% NP-40 in PBS; immunoprecipitated with anti-Myc antibody and protein G-Sepharose at 4 °C, washed with 0.1% NP-40/PBS; immunoblot with anti-HA antibody

- binding: binds
B1: human NDP52, HA-tagged (protein, UniProt Q13137 1-446)
chain: MEETIKDPPTSAVLLDHCHFSQVIFNSVEKFYIPGGDVTCHYTFTQHFIPRRKDWIGIFRVGWKTTREYYTFMWVTLPIDLNNKSAKQQEVQFKAYYLPKDDEYYQFCYVDEDGVVRGASIPFQFRPENEEDILVVTTQGEVEEIEQHNKELCKENQELKDSCISLQKQNSDMQAELQKKQEELETLQSINKKLELKVKEQKDYWETELLQLKEQNQKMSSENEKMGIRVDQLQAQLSTQEKEMEKLVQGDQDKTEQLEQLKKENDHLFLSLTEQRKDQKKLEQTVEQMKQNETTAMKKQQELMDENFDLSKRLSENEIICNALQRQKERLEGENDLLKRENSRLLSYMGLDFNSLPYQVPTSDEGGARQNPGLAYGNPYSGIQESSSPSPLSIKKCPICKADDICDHTLEQQQMQPLCFNCPICDKIFPATEKQIFEDHVFCHSL
